Consider 4 substances from article doi:10.1101/648071 (bioRxiv, 2019).

By UniProt entry, the sequences of proteins in these tests, tags left out. Residues count along the entry.
UniProt P40699, 140-297: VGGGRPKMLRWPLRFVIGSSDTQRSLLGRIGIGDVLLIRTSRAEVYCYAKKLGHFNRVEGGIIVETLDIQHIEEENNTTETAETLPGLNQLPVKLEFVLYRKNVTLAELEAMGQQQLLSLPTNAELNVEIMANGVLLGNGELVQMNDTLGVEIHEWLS
UniProt P40699, 1-145: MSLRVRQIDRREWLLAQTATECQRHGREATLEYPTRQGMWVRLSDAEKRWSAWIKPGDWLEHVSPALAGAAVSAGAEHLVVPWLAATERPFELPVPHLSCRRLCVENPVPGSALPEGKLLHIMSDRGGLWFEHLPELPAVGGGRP
UniProt P40699, whole entry: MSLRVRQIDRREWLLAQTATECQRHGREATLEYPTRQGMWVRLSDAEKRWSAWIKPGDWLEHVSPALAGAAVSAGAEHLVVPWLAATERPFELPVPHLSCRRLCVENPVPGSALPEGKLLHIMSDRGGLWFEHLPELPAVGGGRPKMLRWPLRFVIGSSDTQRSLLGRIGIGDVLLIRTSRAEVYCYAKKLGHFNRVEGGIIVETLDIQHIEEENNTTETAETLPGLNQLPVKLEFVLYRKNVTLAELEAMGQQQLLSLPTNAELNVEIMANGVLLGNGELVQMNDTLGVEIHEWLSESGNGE

No constants are given. Whether binding was seen depends on the method and setting. Some results given as binding are weak or reduced against the parent protein; the word gives no strength.

Test [1] has as its target SpaO N-terminal domain (SpaO 1-145) (Salmonella Typhimurium strain SL1344) (UniProt P40699). The test is described as follows: SEC-MALS.
In test [2] the target is SpaO SPOA1-SPOA2 construct (SpaO 140-297) (Salmonella Typhimurium strain SL1344) (UniProt P40699). The test is described as follows: native MS.
For test [3] the target is unchanged. The test is described as follows: SEC-MALS. For orientation: Size exclusion chromatography separates by hydrodynamic size, large species first.
For test [4], the target named is SpaO in the SpaO/SpaOC/OrgB/InvC complex (spaO+orgB+invC co-expression) (Salmonella Typhimurium strain SL1344) (UniProt P40699). Briefly: SEC-MALS.

“SpaO N-terminal domain (SpaO 1-145) (from UniProt P40699 1-145) (domain or fragment)”: the binding entry in test [1] and in test [2] was “no binding” each time.
Regarding “SpaO SPOA1-SPOA2 construct (SpaO 140-297) (from UniProt P40699 140-297) (domain or fragment)”, the binding result in test [3] is reported as “no binding”.
For “SpaOC in the SpaO/SpaOC/OrgB/InvC complex (spaO+orgB+invC co-expression) (from UniProt P40699 203-303)”, the binding result in test [4] is “binds”.
With “SpaOC, short product of the spaO gene, C-terminal Strep-tag (from UniProt P40699 203-303)”, the binding entry in test [3] is listed as “binds weakly”.
